Reference: PMC11327110
No constants are given. Whether binding was seen depends on the method and setting. Some binding calls cover weakened binding; strength is not graded here.

By UniProt entry, the sequences of proteins in these tests, tags left out.
UniProt Q9Y244: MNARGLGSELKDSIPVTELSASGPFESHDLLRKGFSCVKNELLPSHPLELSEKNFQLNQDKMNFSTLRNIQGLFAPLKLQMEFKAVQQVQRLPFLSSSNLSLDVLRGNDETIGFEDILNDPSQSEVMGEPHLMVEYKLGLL
UniProt P28066: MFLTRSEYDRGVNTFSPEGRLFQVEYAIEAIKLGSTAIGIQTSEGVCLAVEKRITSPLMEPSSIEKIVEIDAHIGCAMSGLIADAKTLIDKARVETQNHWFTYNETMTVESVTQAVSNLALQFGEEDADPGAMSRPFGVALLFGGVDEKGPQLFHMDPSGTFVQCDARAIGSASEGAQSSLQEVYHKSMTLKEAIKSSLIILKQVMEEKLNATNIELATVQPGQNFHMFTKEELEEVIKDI
UniProt O14818: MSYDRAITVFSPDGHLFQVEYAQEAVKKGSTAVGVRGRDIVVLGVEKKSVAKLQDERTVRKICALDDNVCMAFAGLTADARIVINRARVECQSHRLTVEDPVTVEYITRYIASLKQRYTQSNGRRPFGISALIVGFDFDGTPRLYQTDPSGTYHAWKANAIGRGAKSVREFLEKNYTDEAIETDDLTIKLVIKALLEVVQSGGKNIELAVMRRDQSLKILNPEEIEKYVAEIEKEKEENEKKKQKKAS
UniProt P25789: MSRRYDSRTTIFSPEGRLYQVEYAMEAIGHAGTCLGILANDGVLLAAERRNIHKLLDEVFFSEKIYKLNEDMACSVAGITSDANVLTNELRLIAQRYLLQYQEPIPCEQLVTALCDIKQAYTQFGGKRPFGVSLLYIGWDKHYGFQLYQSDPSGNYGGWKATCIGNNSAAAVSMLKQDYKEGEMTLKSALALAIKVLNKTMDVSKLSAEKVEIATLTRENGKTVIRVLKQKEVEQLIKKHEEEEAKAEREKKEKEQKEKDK
UniProt P25786: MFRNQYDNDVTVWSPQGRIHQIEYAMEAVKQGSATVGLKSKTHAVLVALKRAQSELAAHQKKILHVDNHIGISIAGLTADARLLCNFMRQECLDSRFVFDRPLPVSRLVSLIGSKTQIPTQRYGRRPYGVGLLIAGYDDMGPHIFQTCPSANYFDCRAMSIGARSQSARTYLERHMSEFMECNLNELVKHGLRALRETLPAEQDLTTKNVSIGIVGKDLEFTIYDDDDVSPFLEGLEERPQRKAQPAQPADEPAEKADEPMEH
UniProt P25788: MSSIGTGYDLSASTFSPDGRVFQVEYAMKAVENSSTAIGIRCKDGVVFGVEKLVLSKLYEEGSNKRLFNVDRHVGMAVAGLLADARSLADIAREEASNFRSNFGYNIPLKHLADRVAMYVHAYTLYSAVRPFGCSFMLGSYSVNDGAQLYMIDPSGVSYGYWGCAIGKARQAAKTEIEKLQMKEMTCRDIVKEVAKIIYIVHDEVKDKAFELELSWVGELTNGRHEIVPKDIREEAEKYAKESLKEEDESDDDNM

Columns and labels:
[1] = molecular target: T1, proteasome assembly chaperone 4 (PAC4) (human) (UniProt Q5JS54); experiment: cryo-EM structure; structure 1 (map 1): α-ring, PAC1–PAC4, POMP, β2; co-expressed in insect cells, purified by the twin-Strep tag on β2 and SEC (pooled fractions C4–C7; 25 mM HEPES pH 7.5, 150 mM NaCl, 1 mM dithiothreitol; 0.25 mM Fos-Choline-8 added); both purified
T1 sequence: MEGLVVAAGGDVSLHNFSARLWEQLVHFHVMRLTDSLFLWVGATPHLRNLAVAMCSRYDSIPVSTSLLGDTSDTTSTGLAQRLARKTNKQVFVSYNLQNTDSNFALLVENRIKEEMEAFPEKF

[2] = molecular target: proteasome maturation protein (POMP) (human) (UniProt Q9Y244); experiment: as above
[3] = molecular target: proteasome subunit α5 (PSMA5) (human) (UniProt P28066); experiment: as above
[4] = molecular target: proteasome subunit α4 (PSMA7) (human) (UniProt O14818); experiment: as above
[5] = molecular target: proteasome subunit α3 (PSMA4) (human) (UniProt P25789); experiment: as above
[6] = molecular target: proteasome subunit α6 (PSMA1) (human) (UniProt P25786); experiment: as above
[7] = molecular target: proteasome subunit α7 (PSMA3) (human) (UniProt P25788); experiment: as above
[8] = molecular target: proteasome maturation protein (POMP) (human) (UniProt Q9Y244); experiment: cryo-EM structure; preholo 20S CP: two fused half-CPs with PAC1/PAC2, POMP and propeptides; β2-tag purification, SEC peak fraction; both purified
[9] = molecular target: proteasome maturation protein (POMP) (human) (UniProt Q9Y244); experiment: cryo-EM structure; structure 3 (map 3): α-ring, PAC1/PAC2, POMP, β2–β4; same sample as structure 1 (β2-tag purification, SEC fractions C4–C7); both purified
[10] = molecular target: proteasome maturation protein (POMP) (human) (UniProt Q9Y244); experiment: cryo-EM structure; structure 2 (map 2): α-ring, PAC1/PAC2, POMP, β2, β3; same sample as structure 1 (β2-tag purification, SEC fractions C4–C7); both purified
[11] = molecular target: proteasome maturation protein (POMP) (human) (UniProt Q9Y244); experiment: cryo-EM structure; structure 4 (map 4): α-ring, PAC1/PAC2, POMP, β2–β6; same sample as structure 1 (β2-tag purification, SEC fractions C4–C7); both purified
[12] = molecular target: proteasome maturation protein (POMP) (human) (UniProt Q9Y244); experiment: cryo-EM structure; structure 5 (map 5, half-CP): α-ring, PAC1/PAC2, POMP, complete β-ring; same sample as structure 1 (β2-tag purification, SEC fractions C4–C7); both purified

Measured: binding

B1: proteasome assembly chaperone 3 (PAC3) (protein, UniProt Q9BT73 1-122)
chain: MEDTPLVISKQKTEVVCGVPTQVVCTAFSSHILVVVTQFGKMGTLVSLEPSSVASDVSKPVLTTKVLLGQDEPLIHVFAKNLVAFVSQEAGNRAVLLAVAVKDKSMEGLKALREVIRVCQVW
binds: [1] | [2] | [3]

B2: proteasome assembly chaperone 4 (PAC4) (protein, UniProt Q5JS54 1-123)
chain: T1 sequence
binds: [2] | [4] | [3]

B3: PAC3–PAC4 heterodimer (complex, UniProt Q9BT73 1-122; Q5JS54 1-123)
chain 1: B1 chain
chain 2: T1 sequence
binds: [2] | [5] | [4] | [3] | [6] | [7]

B4: proteasome assembly chaperone 1 (PAC1) (protein, UniProt O95456 1-288)
chain: MAATFFGEVVKAPCRAGTEDEEEEEEGRRETPEDREVRLQLARKREVRLLRRQTKTSLEVSLLEKYPCSKFIIAIGNNAVAFLSSFVMNSGVWEEVGCAKLWNEWCRTTDTTHLSSTEAFCVFYHLKSNPSVFLCQCSCYVAEDQQYQWLEKVFGSCPRKNMQITILTCRHVTDYKTSESTGSLPSPFLRALKTQNFKDSACCPLLEQPNIVHDLPAAVLSYCQVWKIPAILYLCYTDVMKLDLITVEAFKPILSTRSLKGLVKNIPQSTEILKKLMTTNEIQSNIYT
binds: [8] | [9] | [10] | [11] | [12]
